Results as given in doi:10.1101/2021.02.09.430422.
Numbering of substitutions follows the chain as printed. Numbers in names are those of the source. Results are given in words; binding and its absence hold for the method and conditions named. Some entries that bind do so weakly or less than the wild type. For some assays here: Sequences can lack the tags named with a protein. Values belong to the binder of their own block, whether it stands above or below them.

How the values were obtained:
[1] = target: T1, Smc6-3C-Twin-Strep (S. cerevisiae) (UniProt Q12749); test: co-purification after co-expression
T1 sequence: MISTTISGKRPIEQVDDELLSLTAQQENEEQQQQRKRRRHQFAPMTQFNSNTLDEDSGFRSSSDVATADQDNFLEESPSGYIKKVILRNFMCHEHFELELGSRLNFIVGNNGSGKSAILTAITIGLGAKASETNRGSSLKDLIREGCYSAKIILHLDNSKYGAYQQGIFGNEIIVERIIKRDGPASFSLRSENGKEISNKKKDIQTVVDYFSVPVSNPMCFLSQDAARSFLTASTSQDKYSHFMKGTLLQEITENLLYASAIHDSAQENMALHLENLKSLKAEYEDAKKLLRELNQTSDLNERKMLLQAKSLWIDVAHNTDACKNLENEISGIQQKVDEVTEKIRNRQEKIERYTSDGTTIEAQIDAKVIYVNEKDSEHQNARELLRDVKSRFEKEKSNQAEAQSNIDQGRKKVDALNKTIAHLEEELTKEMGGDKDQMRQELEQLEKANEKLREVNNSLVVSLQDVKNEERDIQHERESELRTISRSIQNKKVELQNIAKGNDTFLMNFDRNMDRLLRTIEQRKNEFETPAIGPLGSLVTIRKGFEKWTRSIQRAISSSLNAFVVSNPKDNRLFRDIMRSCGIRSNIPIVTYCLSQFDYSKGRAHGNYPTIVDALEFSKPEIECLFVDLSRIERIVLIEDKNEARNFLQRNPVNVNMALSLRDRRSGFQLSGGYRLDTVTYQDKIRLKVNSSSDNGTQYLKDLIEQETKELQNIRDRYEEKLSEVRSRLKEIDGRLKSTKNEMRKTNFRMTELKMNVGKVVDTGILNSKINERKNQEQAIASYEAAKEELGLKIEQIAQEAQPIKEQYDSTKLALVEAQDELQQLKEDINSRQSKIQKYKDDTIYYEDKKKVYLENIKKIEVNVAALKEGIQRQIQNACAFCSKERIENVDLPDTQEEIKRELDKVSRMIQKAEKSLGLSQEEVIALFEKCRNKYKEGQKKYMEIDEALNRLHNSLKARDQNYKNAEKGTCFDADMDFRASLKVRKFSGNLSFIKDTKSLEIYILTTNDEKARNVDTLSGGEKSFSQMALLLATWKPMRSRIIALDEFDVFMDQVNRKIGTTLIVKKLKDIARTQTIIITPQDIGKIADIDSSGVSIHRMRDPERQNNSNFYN

Nse4 (S. cerevisiae) = target: T2, Nse4 (S. cerevisiae) (UniProt P43124); test: cross-linking
T2 sequence: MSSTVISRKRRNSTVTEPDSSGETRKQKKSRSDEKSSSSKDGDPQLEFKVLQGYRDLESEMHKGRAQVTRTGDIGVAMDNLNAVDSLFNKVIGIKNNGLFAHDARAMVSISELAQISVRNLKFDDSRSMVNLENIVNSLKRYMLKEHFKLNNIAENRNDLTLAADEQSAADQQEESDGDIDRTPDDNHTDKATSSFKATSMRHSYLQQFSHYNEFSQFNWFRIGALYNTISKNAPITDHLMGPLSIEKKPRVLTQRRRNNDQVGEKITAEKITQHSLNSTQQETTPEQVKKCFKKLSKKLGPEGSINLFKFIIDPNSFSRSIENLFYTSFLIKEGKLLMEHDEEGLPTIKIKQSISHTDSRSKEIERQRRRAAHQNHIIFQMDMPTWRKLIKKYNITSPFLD

Smc5 (S. cerevisiae) = target: T3, Smc5 (S. cerevisiae) (UniProt Q08204); test: cross-linking
T3 sequence: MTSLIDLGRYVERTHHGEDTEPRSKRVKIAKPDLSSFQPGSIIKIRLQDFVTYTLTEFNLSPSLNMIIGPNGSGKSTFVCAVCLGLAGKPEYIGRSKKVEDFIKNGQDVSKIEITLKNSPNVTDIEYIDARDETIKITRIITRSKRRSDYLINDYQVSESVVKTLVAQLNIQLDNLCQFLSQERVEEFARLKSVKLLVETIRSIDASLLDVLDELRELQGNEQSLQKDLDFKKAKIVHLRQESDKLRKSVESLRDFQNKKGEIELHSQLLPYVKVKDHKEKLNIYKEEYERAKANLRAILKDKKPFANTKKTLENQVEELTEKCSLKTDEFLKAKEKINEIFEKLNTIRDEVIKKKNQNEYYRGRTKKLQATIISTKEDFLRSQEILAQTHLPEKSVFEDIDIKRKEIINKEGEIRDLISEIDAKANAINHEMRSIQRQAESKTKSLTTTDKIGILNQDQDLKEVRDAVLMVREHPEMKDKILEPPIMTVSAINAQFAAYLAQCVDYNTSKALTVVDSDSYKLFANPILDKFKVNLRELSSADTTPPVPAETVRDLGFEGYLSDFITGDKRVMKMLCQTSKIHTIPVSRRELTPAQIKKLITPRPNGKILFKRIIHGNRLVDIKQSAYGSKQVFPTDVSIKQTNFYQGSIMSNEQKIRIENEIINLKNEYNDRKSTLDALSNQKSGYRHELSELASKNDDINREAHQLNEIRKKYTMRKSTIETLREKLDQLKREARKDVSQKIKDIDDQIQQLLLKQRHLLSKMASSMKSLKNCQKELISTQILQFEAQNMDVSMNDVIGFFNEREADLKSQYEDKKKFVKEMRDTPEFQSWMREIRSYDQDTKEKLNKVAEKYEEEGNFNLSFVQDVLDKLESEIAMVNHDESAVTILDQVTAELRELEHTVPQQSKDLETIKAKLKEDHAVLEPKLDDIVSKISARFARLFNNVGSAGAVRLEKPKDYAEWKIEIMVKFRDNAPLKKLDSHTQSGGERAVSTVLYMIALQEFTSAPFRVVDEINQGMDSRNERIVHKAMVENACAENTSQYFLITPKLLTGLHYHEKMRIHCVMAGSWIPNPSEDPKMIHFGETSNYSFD

[2] = target: T4, Smc6 (Twin-Strep tag removed, as in the octamer for XL-MS) (S. cerevisiae) (UniProt Q12749); test: cross-linking
T4 sequence: T1 sequence

[3] = target: T1, Smc6-3C-Twin-Strep (S. cerevisiae); test: cross-linking

- binding [1]: binds
- binding (Nse4 (S. cerevisiae)): binds
- binding (Smc5 (S. cerevisiae)): binds
- binding [2]: binds
B1: Nse3 (protein, UniProt Q05541 1-303)
chain: MSSIDNDSDVDLTEDLAVAKIVKENPVARKMVRYILSRGESQNSIITRNKLQSVIHEAAREENIAKPSFSKMFMDINAILYNVYGFELQGLPSKNNMNAGGNGSNSNTNKSMPEPLGHRAQKFILLNNVPHSKNFDDFKILQSAHTYEELIVTGEYIGDDIASGTSNTLESKLSTDRDLVYKGVLSVILCIVFFSKNNILHQELIKFLETFGIPSDGSKIAILNITIEDLIKSLEKREYIVRLEEKSDTDGEVISYRIGRRTQAELGLESLEKLVQEIMGLEKEQTKSLHDDIIKSIGDSYSI

- binding [3]: binds
B2: Smc5(N975C) (protein, UniProt Q08204 1-1093)
chain: T3 sequence with N975C
